# Reference: patent US8093209B2, “Methods of suppressing microglial activation and systemic inflammatory responses” (Cognosci, Incorporated, priority 2002, dated 2012)
# At least one peptide structure holds a part that was inferred or is arguable (an end, a ring closure or a residue).
# System: primary murine microglial cultures from apoE deficient mouse pups
# Assay: TNFα production by primary microglial cultures with or without LPS
# Assay type: cell-based
smiles,measurement,setting,value
"CC(=O)N[C@H](C(=O)N[C@@H](CCC(=O)O)C(=O)N[C@@H](CCC(=O)O)C(=O)N[C@@H](CC(C)C)C(=O)N[C@@H](CCCNC(=N)N)C(=O)N[C@H](C(=O)N[C@@H](CCCNC(=N)N)C(=O)N[C@@H](CC(C)C)C(=O)N[C@@H](C)C(=O)N[C@@H](CO)C(=O)N[C@@H](Cc1c[nH]cn1)C(=O)N[C@@H](CC(C)C)C(=O)N[C@@H](CCCNC(=N)N)C(=O)N[C@@H](CCCCN)C(=O)N[C@@H](CC(C)C)C(=O)N[C@@H](CCCNC(=N)N)C(=O)N[C@@H](CCCCN)C(=O)N[C@@H](CCCNC(=N)N)C(=O)N[C@@H](CC(C)C)C(=O)N[C@@H](CC(C)C)C(N)=O)C(C)C)[C@@H](C)O [SEQ ID NO:6, TEELRVRLAS HLRKLRKRLL]",peptide concentration at which microglial cytokine release was suppressed,"LPS 100 ng/ml, TNFα at 24 hours, doses 1-1000 μM",≤ 1 µM
same,TNFα production by activated microglia compared to control culture,"peptide 10, 100 and 1000 μM with LPS 100 ng/ml, 24 hours",decrease in TNFα production by activated microglia
